Assay results: patent US20250122148A1, “HIGH-SELECTIVITY KCNQ4 POTASSIUM CHANNEL AGONIST, PREPARATION METHOD THEREFOR AND USE THEREOF” (SHANGHAI INSTITUTE OF MATERIA MEDICA, CHINESE ACADEMY OF …, priority 2022, published 2025)
Some entries share one result that the patent states for a list of compounds.

Columns and labels:
human KCNQ4 = biological target: T1, human KCNQ4 (Homo sapiens, UniProt P56696); assay: Whole-cell voltage clamp of KCNQ4 channel current in transfected CHO-K1 cells; assay type: cell-based; conditions: in vitro electrophysiological experiments
T1 construct: host or cells: CHO-K1 (Chinese hamster ovary), transient transfection with Lipofectamine 2000, co-transfected with GFP
Description: (§1) The cell line used in the electrophysiological experiments was the Chinese hamster ovary cell line (CHO-K1); KCNQ cDNA was transformed into E. coli, expressed in E. coli, and then confirmed by plasmid extraction and sequencing.
(§2) CHO-K1 cells (Cell Bank of Chinese Academy of Sciences), medium formula: 50/50 DMEM/F-12 (Gibco), supplemented with 10% fetal bovine serum (FBS) (Gibco, Australia) and 2 mM L-glutamine (Invitrogen). Transfection and expression of KCNQ channels: 24 hours before transfection, cells were digested with trypsin (Sigma, China) and spread in a 6-well plate. Lipofectamine2000™ reagent (Invitrogen) was used for transfection, and the experiment was carried out according to the procedures provided. Twenty-four hours after transfection, cells were digested and seeded onto poly-L-lysine (Sigma)-soaked slides. After co-transfected with GFP (green fluorescent protein), the transfected cells were determined under a fluorescence microscope (Olympus). The human KCNQ2 plasmid (NCBI: NM_172107.4) and human KCNQ4 plasmid (NCBI: NM_004700.4) used were synthesized by Beijing Genomics Institute and constructed in the pcDNA3.1(+) vector plasmid. KCNQ2 and KCNQ4 plasmids were confirmed by plasmid extraction and sequencing after transformation into E. coli DH5α.
(§3) Whole-cell voltage clamp experiments were carried out at room temperature (23˜25° C.), where Axopatch-700B amplifier (Molecular Devices, Sunnyvale, CA) and Digidata 1440A (Molecular Devices) as digital-to-analog converter were used, pClamp 10.0 software (Molecular Devices, Sunnyvale, CA) was used for signal acquisition, the signal was filtered at 2 kHz, the sampling frequency was 10 kHz. Series resistance compensation was used and set to 60%. Pipettes were pulled from Borosilicate glass capillaries (World Precision Instruments, Sarasota, FL), and the resistance of the pipettes filled with an intracellular fluid was 3-5 MΩ. The perfusion drug delivery system was BPS-8 (ALA Scientific Instruments, Westburg, NY) with a speed of approximately 1 mL/min.
(§4) Intracellular fluid formulation for electrophysiological experiments: 145 mM KCl, 1 mM MgCl2, 5 mM EGTA, 10 mM HEPES, 5 mM MgATP (adjusted to pH=7.3 with KOH).
(§5) Extracellular fluid formulation for electrophysiological experiments: 140 mM NaCl, 5 mM KCl, 2 mM CaCl2), 1.5 mM MgCl2, 10 mM HEPES, 10 mM glucose (adjusted to pH=7.4 with NaOH).
(§6) To record the whole-cell currents of KCNQ2 and KCNQ4 channels, the cells were clamped at a holding potential of −120 mV, and then depolarized to −10 mV for a duration of 1500 ms, and the stimulation frequency was 0.1 Hz. The current amplitudes at the −10 mV test pulse before (IControl) and after (IDrug) the perfusion of the compounds were collected to determine the activation efficacy (IDrug/IControl).
(§7) A certain mass of the compound was weighed and dissolved in DMSO to prepare a 20 mM DMSO stock solution which was frozen and stored at −20° C. until use. […] This kind of concentration of DMSO has no effect on the detected KCNQ channel current. For example, to prepare 100 nM and 1 μM compound solutions, the gradient dilution method was as follows: 5 μL DMSO stock solution was first pipetted and added to 10 mL of extracellular fluid, and was dissolved evenly to obtain a 10 μM compound solution; then 1 mL of 10 μM compound solution was pipetted and added to 9 mL of extracellular fluid, dissolved evenly to obtain a 1 μM compound solution; then 1 mL of 1 μM compound was pipetted and added to 9 mL of extracellular fluid, dissolved evenly to obtain a 100 nM compound solution.
(§8) Data collection, analysis and processing were performed using pClamp10 (Molecular Devices, Sunnyvale, CA), GraphPad Prism 5 (GraphPad Software, San Diego, CA) and Excel (Microsoft Corporation) software. All data are expressed as mean±standard error. (Mean±SEM), significance analysis was performed using unpaired student's t-test. When P<0.05, the difference between the two groups was considered statistically significant. […]

human KCNQ2 = biological target: T2, human KCNQ2 (Homo sapiens, UniProt O43526); assay: Whole-cell voltage clamp of KCNQ2 channel current in transfected CHO-K1 cells; assay type: cell-based; conditions: in vitro electrophysiological experiments
T2 construct: host or cells: CHO-K1 (Chinese hamster ovary), transient transfection with Lipofectamine 2000, co-transfected with GFP
Description: as §1, §2, §3, §4, §5, §6, §7, §8

Row | KCNQ4 agonistic activity (in words) (human KCNQ4) | KCNQ2 agonistic activity (in words) (human KCNQ2) | KCNQ4 agonistic activity (in words) (human KCNQ4; listed as compound K31) | KCNQ2 agonistic activity (in words) (human KCNQ2; listed as compound K31) | Structure (SMILES)
1 | only have KCNQ4 agonistic activity | no effect on KCNQ2 | – | – | C#CCN(Cc1ccc([N+](=O)[O-])cc1)c1ccc(NC(=O)OC(C)(C)C)cc1 [Compound K38]
2 | only have KCNQ4 agonistic activity | no effect on KCNQ2 | – | – | C#CCN(Cc1ccc(F)c(C(F)(F)F)c1)c1ccc(NC(=O)OC(C)(C)C)cc1 [Compound K41]
3 | only have KCNQ4 agonistic activity | no effect on KCNQ2 | – | – | C#CCN(Cc1ccc(I)cc1)c1ccc(NC(=O)OC(C)(C)C)cc1 [Compound K37]
4 | only have KCNQ4 agonistic activity | no effect on KCNQ2 | – | – | C#CCN(Cc1ccccc1F)c1ccc(NC(=O)OC(C)(C)C)cc1 [Compound K32]
5 | only have KCNQ4 agonistic activity | no effect on KCNQ2 | – | – | C#CCN(Cc1ccc(F)c(C#N)c1)c1ccc(NC(=O)OC(C)(C)C)cc1 [Compound K40]
6 | only have KCNQ4 agonistic activity | no effect on KCNQ2 | – | – | C#CCN(Cc1cccc(F)c1)c1ccc(NC(=O)OC(C)(C)C)cc1 [Compound K33]
7 | only have KCNQ4 agonistic activity | no effect on KCNQ2 | – | – | C#CCN(Cc1ccc(F)c(F)c1)c1ccc(NC(=O)OC(C)(C)C)cc1 [Compound K39]
8 | only have KCNQ4 agonistic activity | no effect on KCNQ2 | – | – | C#CCN(Cc1ccc(F)c([N+](=O)[O-])c1)c1ccc(NC(=O)OC(C)(C)C)cc1 [Compound K42]
9 | only have KCNQ4 agonistic activity | no effect on KCNQ2 | – | – | C#CCN(Cc1ccc(Br)cc1)c1ccc(NC(=O)OC(C)(C)C)cc1 [Compound K36]
10 | only have KCNQ4 agonistic activity | no effect on KCNQ2 | – | – | C#CCN(Cc1ccc(Br)c(F)c1)c1ccc(NC(=O)OC(C)(C)C)cc1 [Compound K43]
11 | – | – | only have KCNQ4 agonistic activity | no effect on KCNQ2 | C#CCN(Cc1ccc(F)cc1)c1ccc(NC(=O)OC(C)(C)C)cc1 [Compound K31]
12 | only have KCNQ4 agonistic activity | no effect on KCNQ2 | – | – | C#CCN(Cc1ccc(Cl)cc1)c1ccc(NC(=O)OC(C)(C)C)cc1 [Compound K35]
13 | only have KCNQ4 agonistic activity | no effect on KCNQ2 | – | – | C#CCN(Cc1ccc(C(C)(C)C)cc1)c1ccc(NC(=O)OC(C)(C)C)cc1 [Compound K34]
